{"source": "PubChem BioAssay AID1259308 (NCATS, 2017)", "purpose": "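Genes whose loss raises luciferase production in HEK293 cells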 (primary screen)", "cells": "human HEK293 embryonic kidney cells stably expressing firefly luciferase (HEK-CMV-Luc2-Hygro)", "knock-down reagent": "single siRNA against human genes, 0.8 pmol siRNA per well", "time to read-out": "72 h", "detection": "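Reporter luminescence and viable-cell signal on separate replicate plates, given as percent of non-targeting control and median/MAD z-scores, plus per-cell luciferase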", "reading the numbers": "total luciferase, z-score: higher = more reporter protein produced", "active means": "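An siRNA counts as active if its total luciferase robust z-score exceeds 3; genes with two or more such siRNAs out of three were retested with fresh siRNAs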", "calls": "active = raised luciferase; inactive = no rise", "note": "Here is a random part of about 59,000 deposited reagents. About 1,510 of all reagents (2.6%) were called active. 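Calls use total luciferase alone and ignore viability, so some active siRNAs may act by altering cell number.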 Unmarked entries are inactive. Reagents against one gene are numbered here. Not all columns of the deposit are shown. No sequences are given here."}
{"gene": "AGO4", "reagent": 1, "total luciferase, z-score": -1.26}
{"gene": "AGO4", "reagent": 2, "total luciferase, z-score": -1.68}
{"gene": "AGO4", "reagent": 3, "total luciferase, z-score": -1.08}
{"gene": "LTBP1", "reagent": 1, "total luciferase, z-score": -0.305}
{"gene": "LTBP1", "reagent": 2, "total luciferase, z-score": -0.138}
{"gene": "LTBP1", "reagent": 3, "total luciferase, z-score": 1.68}
{"gene": "SUV39H1", "reagent": 1, "total luciferase, z-score": -0.944}
{"gene": "SUV39H1", "reagent": 2, "total luciferase, z-score": -0.55}
{"gene": "SUV39H1", "reagent": 3, "total luciferase, z-score": 2.49}
{"gene": "GLT1D1", "reagent": 1, "total luciferase, z-score": 1.01}
{"gene": "GLT1D1", "reagent": 2, "total luciferase, z-score": -0.478}
{"gene": "GLT1D1", "reagent": 3, "total luciferase, z-score": 0.999}
{"gene": "ZFPM1", "reagent": 1, "total luciferase, z-score": 2.58}
{"gene": "ZFPM1", "reagent": 2, "total luciferase, z-score": 1.28}
{"gene": "ZFPM1", "reagent": 3, "total luciferase, z-score": -0.583}
{"gene": "SAFB", "reagent": 1, "total luciferase, z-score": 0.0159}
{"gene": "SAFB", "reagent": 2, "total luciferase, z-score": -0.865}
{"gene": "SAFB", "reagent": 3, "total luciferase, z-score": 0.44}
{"gene": "NOS3", "reagent": 1, "total luciferase, z-score": 2.12}
{"gene": "NOS3", "reagent": 2, "total luciferase, z-score": 0.375}
{"gene": "NOS3", "reagent": 3, "total luciferase, z-score": -0.96}
{"gene": "TEX13B", "reagent": 1, "total luciferase, z-score": 1.87}
{"gene": "TEX13B", "reagent": 2, "total luciferase, z-score": 1.93}
{"gene": "TEX13B", "reagent": 3, "total luciferase, z-score": 1.84}
{"gene": "PSMD14", "reagent": 1, "total luciferase, z-score": -0.53}
{"gene": "PSMD14", "reagent": 2, "total luciferase, z-score": 0.0989}
{"gene": "PSMD14", "reagent": 3, "total luciferase, z-score": -0.46}

Records above whose target name begins with T or t (3):
{"gene": "TEX13B", "reagent": 1, "total luciferase, z-score": 1.87}
{"gene": "TEX13B", "reagent": 2, "total luciferase, z-score": 1.93}
{"gene": "TEX13B", "reagent": 3, "total luciferase, z-score": 1.84}

Additional reagents follow:
{"gene": "SPMAP2", "reagent": 1, "total luciferase, z-score": 0.53}
{"gene": "SPMAP2", "reagent": 2, "total luciferase, z-score": -0.63}
{"gene": "SPMAP2", "reagent": 3, "total luciferase, z-score": -1.02}
{"gene": "TUBA1A", "reagent": 1, "total luciferase, z-score": -1.41}
{"gene": "TUBA1A", "reagent": 2, "total luciferase, z-score": 0.428}
{"gene": "TUBA1A", "reagent": 3, "total luciferase, z-score": -0.908}
{"gene": "SOX7", "reagent": 1, "total luciferase, z-score": -0.767}
{"gene": "SOX7", "reagent": 2, "total luciferase, z-score": -1.38}
{"gene": "SOX7", "reagent": 3, "total luciferase, z-score": 1.52}
{"gene": "BCAT1", "reagent": 1, "total luciferase, z-score": 0.087}
{"gene": "BCAT1", "reagent": 2, "total luciferase, z-score": -0.736}
{"gene": "BCAT1", "reagent": 3, "total luciferase, z-score": -0.469}
{"gene": "ATP2C2", "reagent": 1, "total luciferase, z-score": 0.709}
{"gene": "ATP2C2", "reagent": 2, "total luciferase, z-score": -0.422}
{"gene": "ATP2C2", "reagent": 3, "total luciferase, z-score": 1.03}
